These results are taken from publication PMC7819943, “Rice protein-binding microarrays: a tool to detect cis-acting elements near promoter regions in rice”.

By UniProt entry, the sequences of proteins in these tests, tags left out.
UniProt Q0JBA9, entry or part of it: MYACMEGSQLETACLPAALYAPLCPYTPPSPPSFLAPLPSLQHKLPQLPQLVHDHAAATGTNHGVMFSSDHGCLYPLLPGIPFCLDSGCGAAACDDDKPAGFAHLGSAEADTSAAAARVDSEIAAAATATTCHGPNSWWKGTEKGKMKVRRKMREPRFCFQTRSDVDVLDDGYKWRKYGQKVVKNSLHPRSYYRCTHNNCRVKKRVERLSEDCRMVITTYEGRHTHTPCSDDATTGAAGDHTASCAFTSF

Some of the results follow.

The target in this experiment is OsWRKY34 (Oryza sativa, UniProt Q0JBA9 1-250). The experiment is described as follows: protein-binding microarray (RPBM); PBS, 2% BSA, 51.3 ng/ul salmon testes DNA, 50 uM zinc acetate, 200 nM TF, 25 C, 1 h; high values mean tight binding. The note with it: protein: recombinant; tags: N-terminal polyhistidine and DsRed monomer fusion (pET32a); label: CyDye5-dUTP incorporated in the synthesized complementary strand; 3' TTTTT single-stranded linker to array surface; dsDNA, one strand shown. The essentials:
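The binding signal for each feature is its fluorescence intensity in arbitrary units. An Axon 4000B scanner was used to read a custom Agilent array that had been made double-stranded with Cy5-dUTP primer extension, blocked with 2% BSA, incubated at 25 °C for 1 h with 200 nM protein in PBS, 2% BSA, salmon testes DNA and 50 µM zinc acetate, and washed. The protein was an N-terminal polyhistidine–DsRed transcription factor fusion from E. coli BL21-CodonPlus, purified on Ni–NTA.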
For “TCTGTGATTTGATGTTTGCCTGTGTTGTGTGCAAAGTTTTCGGAGTCACCTAGTGCAG”, the binding signal is 16100 fluorescence intensity (a.u.).

With “GCCACCGCCCCTACACCTGCGTCTGAGTTTCCCCGTCCCACGGAGTCACCTAGTGCAG”, the binding signal is 9960 fluorescence intensity (a.u.).

Take “TCTCTGCCAGCCGCCCATCGCACGCCGCCTCCGCCGGCCGCGGAGTCACCTAGTGCAG”: the binding signal was 11600 fluorescence intensity (a.u.).

For “AGTTGTAGCCCATATGTTCATCTATATCTCCTTGAAAAAACGGAGTCACCTAGTGCAG”, the binding signal was 8470 fluorescence intensity (a.u.).

Take “GCCGAACCCCTTTTTGCTTGACTTGCTAGTTTGCTTGTAACGGAGTCACCTAGTGCAG”: the binding signal was 11400 fluorescence intensity (a.u.).

Turning to “AGAGGGGTGATCAGGTTTAGTTGTTAGTCCACTACTTTATCGGAGTCACCTAGTGCAG”, the binding signal was 8100 fluorescence intensity (a.u.).

In the case of “TCCGTCATGCCTCAACCATAATTTTTCATCCATCCATCCACGGAGTCACCTAGTGCAG”, the binding signal was 9400 fluorescence intensity (a.u.).

For the sequence “AGAAGGAGAAGGCGGGGAGAGGCGGGGCGGCCACGGGAGACGGAGTCACCTAGTGCAG”, the binding signal was 12500 fluorescence intensity (a.u.).

For “TGCAGTTTGTTGTTTGCACCCGGTGAAACATCTTCTTTTGCGGAGTCACCTAGTGCAG”, the binding signal is 10500 fluorescence intensity (a.u.).

With “ATATGTATGTATTCAGTGCACGCCCATCCTGTCCTCGATTCGGAGTCACCTAGTGCAG”, the binding signal is 9900 fluorescence intensity (a.u.).

For the sequence “GAGGCTGAACCCCATTCCCATGTCTGCTACCCTTCTTTTACGGAGTCACCTAGTGCAG”, the binding signal was 10800 fluorescence intensity (a.u.).

As to “ACCGTATCATTGGATTCCGGCTGCCTTTCTCTATGCTTCACGGAGTCACCTAGTGCAG”, the binding signal was 8760 fluorescence intensity (a.u.).

On to “AAAAAAGTCAACGGCGTCAAACATTTAGGGAAGGAGGGAGCGGAGTCACCTAGTGCAG”, for which the binding signal was 9190 fluorescence intensity (a.u.).

As for “GAGTGTTGTATAAATTGGAGGCTATATAGCTCTCTCCACCCGGAGTCACCTAGTGCAG”, the binding signal is 8960 fluorescence intensity (a.u.).

Regarding “ATAGCCTATAAAAGGAGGGGCATTGGGAGGCGGGCTATGTCGGAGTCACCTAGTGCAG”, the binding signal was 8950 fluorescence intensity (a.u.).

Consider “ACCTTGCATCAATGCGGTTCTTCGGCCCAGGCGGAGGCGCCGGAGTCACCTAGTGCAG”, for which the binding signal is 8760 fluorescence intensity (a.u.).

As to “CATTTCAGTACTTTGTACCCGGTTCATTTCATTCCACTATCGGAGTCACCTAGTGCAG”, the binding signal was 8510 fluorescence intensity (a.u.).

For the sequence “TTCTCAATTGTATTTCTATATGGACTCTAGTGTCCTCTTCCGGAGTCACCTAGTGCAG”, the binding signal is 8930 fluorescence intensity (a.u.).

With “ATTCCATATGCCAATTCCGATTATTATTTGTATTAATTTACGGAGTCACCTAGTGCAG”, the binding signal was 9370 fluorescence intensity (a.u.).

As to “ATGACGCCAGCGACATGCATCACACATATATCACTCTTTCCGGAGTCACCTAGTGCAG”, the binding signal was 8450 fluorescence intensity (a.u.).

As for “ACATCGCGTCCTACTCACACCTCCTCATGTTGCTACTCGACGGAGTCACCTAGTGCAG”, the binding signal was 10800 fluorescence intensity (a.u.).

On to “GGTGCTCCGTCCATAGCTCTCTTGCCTCCGCCCATAAATACGGAGTCACCTAGTGCAG”, for which the binding signal is 10900 fluorescence intensity (a.u.).

As for “ATGATGTGCGTTGGTTACTACTCCCTCCGTTTCAAAATGTCGGAGTCACCTAGTGCAG”, the binding signal is 9380 fluorescence intensity (a.u.).

Take “TACGTGTATAGTGGGGCGTGTGGTTGTACAATTTTCATGTCGGAGTCACCTAGTGCAG”: the binding signal was 9360 fluorescence intensity (a.u.).

On to “AGGAATGCATTTGTGGTGGGTGCAGGTGCGCGGGTGGCGACGGAGTCACCTAGTGCAG”, for which the binding signal is 8200 fluorescence intensity (a.u.).

As for “AAACCTCTATCCACGTCATATTTTATTTCTTGCAAGTATTCGGAGTCACCTAGTGCAG”, the binding signal was 9350 fluorescence intensity (a.u.).

“ACCTTGTTTTCCTCACCCGACCGTCTGCAAGTTTGCTTCCCGGAGTCACCTAGTGCAG”: the binding signal was 9130 fluorescence intensity (a.u.).

Consider “CAATGTAAGTCATTATAGCATTTTCTACATTCATATTGATCGGAGTCACCTAGTGCAG”, for which the binding signal was 8360 fluorescence intensity (a.u.).

Take “CCTAATCCCACTCTAGTTTCTGAAATAGTAAACGCGCATACGGAGTCACCTAGTGCAG”: the binding signal is 8950 fluorescence intensity (a.u.).

Consider “CCCCTTCGACACCTCGACTTGCTTTTCGTCCCTATCTTGACGGAGTCACCTAGTGCAG”, for which the binding signal is 9090 fluorescence intensity (a.u.).

Consider “GTTTTGCGTCATTTGACCAGTACACAGCCACACATGCCATCGGAGTCACCTAGTGCAG”, for which the binding signal is 8720 fluorescence intensity (a.u.).

“ATCTCACTTCTCGCACCTCGCTTTCAGTTTGGTCCATGCCCGGAGTCACCTAGTGCAG”: the binding signal is 12600 fluorescence intensity (a.u.).

Regarding “AATCCACAACAATGCCAATTTCTTCTTTGCCCAACCCATGCGGAGTCACCTAGTGCAG”, the binding signal is 8150 fluorescence intensity (a.u.).

As for “GCCGAGCTCCATTGCCAACCTCACCGCGCTGCAGACGCTGCGGAGTCACCTAGTGCAG”, the binding signal was 8620 fluorescence intensity (a.u.).

With “TTGTCATGTTTAATTTCGAACAGCTCATGTGACGGTCAAACGGAGTCACCTAGTGCAG”, the binding signal was 8530 fluorescence intensity (a.u.).

As to “AAACCGGAGTCAAATCCACCGAGGGACTTAGTTTGCACTGCGGAGTCACCTAGTGCAG”, the binding signal was 9590 fluorescence intensity (a.u.).

“ATTTCATGCTTTGTTCCTCTGATTACGATCTTGCTCTGTTCGGAGTCACCTAGTGCAG”: the binding signal is 10800 fluorescence intensity (a.u.).

On to “ATTTGGTGTTTAAAATGTTACTATTTTTCTATAAACTTAGCGGAGTCACCTAGTGCAG”, for which the binding signal was 8300 fluorescence intensity (a.u.).

Turning to “CCGGTCCAAAATCTAGTTTGACCATGGTCTAACCTACGTGCGGAGTCACCTAGTGCAG”, the binding signal is 8590 fluorescence intensity (a.u.).

As for “AGGTGTTCGTCCATGGACCGCCGGCCGGGGTGGATCTCAACGGAGTCACCTAGTGCAG”, the binding signal was 8050 fluorescence intensity (a.u.).

Take “ACATATCATCCTTACTACTCATGTTTTTAATAATTTCATTCGGAGTCACCTAGTGCAG”: the binding signal was 8790 fluorescence intensity (a.u.).

Regarding “ACACATTATCTACTCCGTCCACTGTTTTGCAAACTTATCCCGGAGTCACCTAGTGCAG”, the binding signal is 11500 fluorescence intensity (a.u.).
